According to PubChem BioAssay AID1671190 (National Center for Advancing Translational Sciences (NCATS), 2021):
In all, about 580,000 compounds went through this assay and about 6,100 (1.1%) were called active. The shares of active, inactive and inconclusive entries below differ from those in the screen. Calls come from the whole dose curve; as a rule, active = well fitted inhibition curve with a large enough effect; inconclusive = small, poorly fitted or top-dose-only effect, or another doubt; inactive = no such curve, though single readings can be large or run the other way. Potencies of inconclusive entries are doubtful fits and often do not repeat.

Sequences of proteins named here, by UniProt entry; tags and fusion partners are left off. A change or cut given only in a name is not applied to a line headed by its entry.
UniProt P18054: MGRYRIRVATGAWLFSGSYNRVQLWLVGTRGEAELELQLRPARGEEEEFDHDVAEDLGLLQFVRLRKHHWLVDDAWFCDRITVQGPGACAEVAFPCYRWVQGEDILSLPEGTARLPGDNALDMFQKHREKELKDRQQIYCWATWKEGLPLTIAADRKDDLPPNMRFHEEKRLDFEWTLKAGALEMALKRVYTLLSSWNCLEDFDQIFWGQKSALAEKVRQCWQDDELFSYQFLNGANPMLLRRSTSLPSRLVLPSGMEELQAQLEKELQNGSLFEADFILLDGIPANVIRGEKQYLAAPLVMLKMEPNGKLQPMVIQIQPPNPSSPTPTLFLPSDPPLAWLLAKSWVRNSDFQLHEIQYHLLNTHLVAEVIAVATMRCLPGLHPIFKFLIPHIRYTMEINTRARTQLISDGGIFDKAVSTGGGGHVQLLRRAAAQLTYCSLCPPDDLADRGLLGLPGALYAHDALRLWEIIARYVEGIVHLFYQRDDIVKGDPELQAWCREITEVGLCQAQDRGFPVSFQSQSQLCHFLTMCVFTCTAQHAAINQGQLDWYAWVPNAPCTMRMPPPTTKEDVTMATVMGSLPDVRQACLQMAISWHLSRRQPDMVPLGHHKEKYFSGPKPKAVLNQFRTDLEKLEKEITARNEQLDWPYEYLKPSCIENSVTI

biological target: Polyunsaturated fatty acid lipoxygenase ALOX12 (Homo sapiens) (UniProt P18054); experiment: Primary qHTS assay for inhibitors of human arachidonate 12S-lipoxygenase (ALOX12): Round 2; details: purified 12hLO, xylenol orange hydroperoxide absorbance; series mostly up to 108 µM
In short: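 Hydroperoxide product was detected by ferrous iron/xylenol orange as the 573 to 405 nm absorbance ratio. Arachidonic acid at 40 uM (final) was turned over for 30 min at room temperature by 150 nM human 12hLO, pH 7.0 Hepes buffer, after 15 min compound preincubation.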
Potency is the fitted concentration of half-maximal effect.

Row | SMILES | Potency
1 | CCC(OCC(O)CN1CCN(CCN2C(=O)c3cccc4cccc(c34)C2=O)CC1)c1ccccc1 (configuration not stated) | inconclusive: 50.1 µM [inhibitor, partial curve, poor fit]
2 | CC(C)C(=O)Nc1ccc2[nH]cc(C(C(=O)O)N3CCN(c4ccc(F)cc4)CC3)c2c1 (configuration not stated) | inconclusive: 39.8 µM [inhibitor, single point]
3 | COc1ccc(S(=O)(=O)n2nc(-c3cc(OC)c(OC)c(OC)c3)cc2N)cc1OC | inconclusive: 100 µM [inhibitor, partial curve, poor fit]
4 | O=C(c1nc(-c2ccc(Cl)cc2)c2cnccn12)N1CCOCC1 | inconclusive: 25.1 µM [inhibitor, full curve]
5 | COc1ccc(N(CC(=O)NCc2ccccc2)S(C)(=O)=O)cc1 | inactive
6 | CCOc1ccc(NS(=O)(=O)c2ccc(C(=O)N3CCCCCC3)cc2)cc1 | inconclusive: 112 µM [inhibitor, single point]
7 | CN(C)CCCN1C(=O)c2oc3ccccc3c(=O)c2C1c1cccs1 (configuration not stated) | inconclusive: 1.12 µM [inhibitor, full curve]
8 | O=C(Nc1ccc(Oc2ccccc2)cc1)c1ccc2sc([C@H]3C[C@H](O)[C@@H](CO)O3)nc2c1 | inactive
9 | CCNC(=O)c1cccc(NC(=O)c2cc(=O)c3cc(C)ccc3o2)c1 | inactive
10 | O=S(=O)(Nc1ccccc1)c1cccc2nsnc12 | inconclusive: 89.1 µM [inhibitor, single point]
11 | COc1ccc(Br)cc1CN1C(=O)NC2(CCCCCC2)C1=O | inconclusive: 0.199 µM [inhibitor, full curve, poor fit]
12 | Cc1cc(C(=O)N/N=C/c2cccc(OC(=O)c3cccc(Br)c3)c2)n[nH]1 | inactive
13 | Cc1cc(Cl)cc(Cl)c1OCCCCN(C)C | inactive
14 | O=C(Nc1ccccc1C(=O)N1CCCC1)c1cnc2ccccc2n1 | inactive
15 | CCCn1c(C)cc(C(=O)COc2ncnc3ccccc23)c1C | inconclusive: 56.2 µM [inhibitor, partial curve, poor fit]
16 | Cc1cc(C)cc(CC(CC(=O)O)C(=O)Nc2cccc(C(F)(F)F)c2)c1 (configuration not stated) | inactive
17 | CNCc1ccc(-c2[nH]c3cc(F)cc4c3c2CCNC4=O)cc1 | inconclusive: 15.3 µM [inhibitor, partial curve, poor fit]
18 | O=C(Cn1cnc2c(nnn2Cc2ccc(F)cc2)c1=O)N1CCCCCC1 | inactive
19 | CN1CCN(CC(=O)Nc2ccc([N+](=O)[O-])cc2Br)CC1 | inconclusive: 44.7 µM [inhibitor, partial curve, poor fit]
20 | CC(=O)n1cc(N(C(=O)CCl)c2ccc([N+](=O)[O-])cc2)c2ccccc21 | inconclusive: 10 µM [inhibitor, partial curve]
21 | Cn1nc(C(F)(F)F)c(-c2ccccc2)c1NC(=O)c1cccnc1 | inconclusive: 100 µM [inhibitor, partial curve, poor fit]

Exported in markdown: part of the list above

| Row | SMILES | Potency |
| --- | --- | --- |
| 3 | COc1ccc(S(=O)(=O)n2nc(-c3cc(OC)c(OC)c(OC)c3)cc2N)cc1OC | inconclusive: 100 µM [inhibitor, partial curve, poor fit] |
| 4 | O=C(c1nc(-c2ccc(Cl)cc2)c2cnccn12)N1CCOCC1 | inconclusive: 25.1 µM [inhibitor, full curve] |
| 5 | COc1ccc(N(CC(=O)NCc2ccccc2)S(C)(=O)=O)cc1 | inactive |

Next part.

Row | SMILES | Potency
22 | CCc1ccc(NC(=O)CSc2nc(NS(=O)(=O)c3ccccc3)cc(=O)[nH]2)cc1 | inconclusive: 8.91 µM [inhibitor, partial curve, poor fit]
23 | CC(=O)Nc1cccc(-c2nc(N3CCOCC3)cc3c2CN(Cc2cnn(C)c2)C3=O)c1 | inconclusive: 89.1 µM [inhibitor, partial curve, poor fit]
24 | COc1cc(C2CC(=O)Nc3c(-c4ccccc4)nsc32)c(OC)c2c1OCO2 (configuration not stated) | inactive
25 | COc1ccc(CN2CCN(CC=C(C)C)CC2)cc1 | inactive
26 | COc1cc(OC)cc(C(=O)Nc2nc(-c3nnn(-c4ccc(F)c(Cl)c4)c3C)ns2)c1 | inconclusive: 158 µM [inhibitor, single point]
27 | COCCCNc1ncnc2c1CN(C1CCCNCC1)C(=O)CN2C (configuration not stated) | inconclusive: 11.2 µM [inhibitor, full curve]
28 | COC(=O)CN1CCN(c2nc3c(c(=O)[nH]c(=O)n3C)n2Cc2ccc(F)cc2)CC1 | inconclusive: 79.4 µM [inhibitor, single point]
29 | CCOc1cc(/C=C2/NC(=S)NC2=O)ccc1OCc1ccc([N+](=O)[O-])cc1 | inactive
30 | CC(=O)Nc1ccc(S(=O)(=O)N2CCN(Cc3cccnc3)CC2)cc1 | inconclusive: 0.282 µM [inhibitor, full curve, poor fit]
31 | Cc1ccc(-c2ccc(C(=O)O)s2)cc1 | inconclusive: 14.1 µM [inhibitor, full curve]
32 | O=C1CO[C@H]2CCN(Cc3ccc4c(c3)CCO4)CC[C@@H]2N1Cc1ccccc1 | inconclusive: 50.1 µM [inhibitor, full curve, poor fit]
33 | O=C(NCCc1nc2ccccc2n1CCC1CCCCC1)c1ccco1 | inactive
34 | O=C(CSc1nc(O)c(C/C=C/c2ccccc2)c(=O)[nH]1)Nc1cccc(F)c1 | inconclusive: 100 µM [inhibitor, single point]
35 | COc1ccc(CNC(=O)CNC(c2ccccc2)c2ccccc2)cc1OC | inactive
36 | C=CCOC(=O)C1=C(C)NC(C)=C(C(=O)OCC=C)C1/C=C/c1ccccc1 | inactive
37 | O=C(COC(=O)c1ccc(O)cc1)c1ccc2c(c1)OCCO2 | inactive
38 | Cc1cc(N2CCN(CC(C)(C)O)C[C@@H]2C)ccc1N1CCN(Cc2ccccc2)[C@H](C)C1 | inconclusive: 89.1 µM [inhibitor, single point]
39 | C/C(=N\NC(=S)NCc1ccccc1)c1ccc(Cl)s1 | inconclusive: 44.7 µM [inhibitor, partial curve, poor fit]
40 | COc1ccc(S(=O)(=O)N(C)C[C@H]2Oc3ccc(NC(=O)NC4CCCCC4)cc3C(=O)N([C@H](C)CO)C[C@@H]2C)cc1 | inconclusive: 1 µM [inhibitor, full curve, poor fit]
41 | CN(C)C(=O)CSc1ncccc1-c1nc2ccccc2[nH]1 | inconclusive: 39.8 µM [inhibitor, partial curve, poor fit]
42 | O=C(Nc1ccc2oc(-c3cc(Br)ccc3Cl)nc2c1)c1ccc2ccccc2c1 | inconclusive: 44.7 µM [inhibitor, partial curve, poor fit]
